Measurements reported in patent publication US20230270802A1, “ANTIVIRAL PHARMACEUTICAL COMPOSITION” (GSK CONSUMER HEALTHCARE SARL, priority 2020, published 2023).
At least one compound was matched to its structure with a doubt left.

Experiments:
[1] = tested on: SARS-CoV-2; conditions: cited from earlier work
[2] = tested on: SARS-CoV-2 (French circulating strain); assay: SARS-CoV-2 viral genome copy number in MucilAir nasal epithelium, Example 2; type: cell-based, human; conditions: for % of log reduction in genome copy number compared to the average of negative control: after 72 hours, single inserts (1, 2), remdesivir 5 µM basolateral, test compound 10 µl apically

## CCC(CC)COC(=O)[C@H](C)N[P@](=O)(OC[C@H]1O[C@@](C#N)(c2ccc3c(N)ncnn23)[C@H](O)[C@@H]1O)Oc1ccccc1 [remdesivir]
[1]
  Relative viral production: reduces the relative viral production
[2]; listed as Positive control 1
  % of log reduction in genome copy number compared to the average of negative control: 2.19E-04%
[2]; listed as Positive control 2
  % of log reduction in genome copy number compared to the average of negative control: 2.40E-04%
[2]; remdesivir 5 µM in basolateral medium
  Magnitude of inhibition of apical SARS-CoV-2 genome copies: 5.6 log
